Results deposited as PubChem BioAssay AID1224830 (NIAID, 2016)
Here is one part, drawn at random, of about 18,000 reagents tested. In the full data, about 2,900 (16%) got an active call. 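Calls are made per well; low scores hint the gene aids the LPS response, high scores that it dampens it.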 Repeated entries: four replicate wells of each siRNA pool.

Assay: 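Host factors that control LPS-induced TNF expression in human macrophages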 (primary screen)
Cells: human THP-1 monocytic leukaemia cells, TNF dual-luciferase reporter clone, PMA-differentiated to macrophage-like cells
Knock-down reagent: siRNA pool against human genes, 50 nM
Timing: LPS for 4 h, given about 3 days after siRNA transfection
Challenge: bacterial LPS (TLR4 ligand), 10 ng/ml
Read-out: 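Ratio of firefly to renilla light, scaled to the plate median and expressed as a robust z-score per replicate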
Scale: TNF reporter robust z-score: higher = stronger TNF reporter response to LPS
Call rule: 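a well is active when its z-score exceeds 2.8 or falls below -1.5; control wells carry no call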

The opening 3 entries, to show the layout:
| gene | TNF reporter robust z-score | Outcome |
| --- | --- | --- |
| SCN4B (sodium voltage-gated channel beta subunit 4) | -0.51 | inactive |
| SCN4B (sodium voltage-gated channel beta subunit 4) | 0.27 | inactive |
| SCN4B (sodium voltage-gated channel beta subunit 4) | -1.76 | active |

The listing, repeating the preview:
| gene | TNF reporter robust z-score | Outcome |
| --- | --- | --- |
| SCN4B (sodium voltage-gated channel beta subunit 4) | -0.51 | inactive |
| SCN4B (sodium voltage-gated channel beta subunit 4) | 0.27 | inactive |
| SCN4B (sodium voltage-gated channel beta subunit 4) | -1.76 | active |
| SCN4B (sodium voltage-gated channel beta subunit 4) | -0.35 | inactive |
| RBM11 (RNA binding motif protein 11) | -0.23 | inactive |
| RBM11 (RNA binding motif protein 11) | 0.5 | inactive |
| RBM11 (RNA binding motif protein 11) | -0.52 | inactive |
| RBM11 (RNA binding motif protein 11) | 0.85 | inactive |
| HS1BP3 (HCLS1 binding protein 3) | -0.44 | inactive |
| HS1BP3 (HCLS1 binding protein 3) | 0.52 | inactive |
| HS1BP3 (HCLS1 binding protein 3) | -0.46 | inactive |
| HS1BP3 (HCLS1 binding protein 3) | 0.18 | inactive |
| NDUFS3 (NADH:ubiquinone oxidoreductase core subunit S3) | 0.55 | inactive |
| NDUFS3 (NADH:ubiquinone oxidoreductase core subunit S3) | 0.78 | inactive |
| NDUFS3 (NADH:ubiquinone oxidoreductase core subunit S3) | 0.75 | inactive |
| NDUFS3 (NADH:ubiquinone oxidoreductase core subunit S3) | 0.91 | inactive |
| LINC03122 (long independently transcribed non-coding RNA 3122) | -0.22 | inactive |
| LINC03122 (long independently transcribed non-coding RNA 3122) | -0.46 | inactive |
| LINC03122 (long independently transcribed non-coding RNA 3122) | -0.17 | inactive |
| LINC03122 (long independently transcribed non-coding RNA 3122) | 0.44 | inactive |
| FUT7 (fucosyltransferase 7) | -0.04 | inactive |
| FUT7 (fucosyltransferase 7) | 0.64 | inactive |
| FUT7 (fucosyltransferase 7) | -0.21 | inactive |
| FUT7 (fucosyltransferase 7) | 0.74 | inactive |
| PCDHGA7 (protocadherin gamma subfamily A, 7) | 0.69 | inactive |
| PCDHGA7 (protocadherin gamma subfamily A, 7) | 1.43 | inactive |
| PCDHGA7 (protocadherin gamma subfamily A, 7) | 1.02 | inactive |
| PCDHGA7 (protocadherin gamma subfamily A, 7) | 1.26 | inactive |
| GSR (glutathione-disulfide reductase) | -0.86 | inactive |
| GSR (glutathione-disulfide reductase) | -0.17 | inactive |
| GSR (glutathione-disulfide reductase) | -0.45 | inactive |
| GSR (glutathione-disulfide reductase) | -0.78 | inactive |
| TIMM21 (translocase of inner mitochondrial membrane 21) | -1.04 | inactive |
| TIMM21 (translocase of inner mitochondrial membrane 21) | 0.62 | inactive |
| TIMM21 (translocase of inner mitochondrial membrane 21) | -0.23 | inactive |
| TIMM21 (translocase of inner mitochondrial membrane 21) | 0.19 | inactive |
| CAMK2N1 (calcium/calmodulin dependent protein kinase II inhibitor 1) | 0.24 | inactive |
| CAMK2N1 (calcium/calmodulin dependent protein kinase II inhibitor 1) | -0.48 | inactive |
| CAMK2N1 (calcium/calmodulin dependent protein kinase II inhibitor 1) | 1.19 | inactive |
| CAMK2N1 (calcium/calmodulin dependent protein kinase II inhibitor 1) | -0.27 | inactive |
| SERPINB9 (serpin family B member 9) | -0.03 | inactive |
| SERPINB9 (serpin family B member 9) | 0.31 | inactive |
| SERPINB9 (serpin family B member 9) | -0.68 | inactive |
| SERPINB9 (serpin family B member 9) | 0.3 | inactive |
| TGM2 (transglutaminase 2) | -0.68 | inactive |
| TGM2 (transglutaminase 2) | 0.37 | inactive |
| TGM2 (transglutaminase 2) | 1.2 | inactive |
| TGM2 (transglutaminase 2) | -1.02 | inactive |
